## Library screen at single concentrations

Amino acid sequences for entries named in this document (tags omitted).
UniProt P9WNZ1, whole entry: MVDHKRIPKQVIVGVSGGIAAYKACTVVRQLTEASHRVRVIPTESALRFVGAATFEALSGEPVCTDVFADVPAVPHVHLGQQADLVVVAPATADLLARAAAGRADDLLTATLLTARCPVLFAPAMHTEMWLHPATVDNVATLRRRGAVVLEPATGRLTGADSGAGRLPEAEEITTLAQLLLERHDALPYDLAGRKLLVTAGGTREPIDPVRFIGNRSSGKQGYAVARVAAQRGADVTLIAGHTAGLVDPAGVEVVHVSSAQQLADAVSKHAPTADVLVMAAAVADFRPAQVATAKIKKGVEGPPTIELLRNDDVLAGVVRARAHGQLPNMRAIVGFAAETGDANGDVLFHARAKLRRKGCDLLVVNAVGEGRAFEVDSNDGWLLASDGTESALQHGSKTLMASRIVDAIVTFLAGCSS

From ChEMBL document CHEMBL3988442, “University of Dundee, Small-Polar-MMV Screening Library” (2021).

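Enzyme assay of CoaBC with a phosphate dye (Biomol Green) read at 650 nm. Target: Coenzyme A biosynthesis protein CoaBC, Mycobacterium tuberculosis (UniProt P9WNZ1). Compounds at 30 µM. Higher reads as stronger inhibition, judged from the few compounds that gave an IC50. Most strong results did not repeat in a second test. Of about 67,000 compounds tested this way, about 40 (0.06%) reached 50% or more in at least one test.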

Values are the deposited “Percent Effect”, in %.
The controls that fix the scale are not given in the record; negative values are as filed.
Compounds were drawn at random from those tested, without regard to their results.
Two or more numbers in one place are separate tests of the same structure; such repeats can differ widely.

| # | Compound | effect |
|---|---|---|
| 1 | `Cn1cnc2c1CCN(Cc1nc(-c3ccsc3)no1)C2` | 3.71 |
| 2 | `O=C(CN1CCCC(Cn2cncn2)C1)NCc1ccccc1F` (configuration not stated) | 2.611 |
| 3 | `O=C(Cc1c[nH]c2ccccc12)N1CCC(Nc2cccnn2)CC1` | 2.899 |
| 4 | `Cc1ccnc(C(=O)N2C[C@@H]3CN(S(C)(=O)=O)CCO[C@@H]3C2)c1` | -2.326 |
| 5 | `COc1ccccc1OC1CCN(Cc2ccc(N(C)C)nc2)CC1` | 7.663 |
| 6 | `CCCc1cc(CNC(=O)C2CCOc3ccccc3C2)on1` (configuration not stated) | 6.579 |
| 7 | `COc1cc(F)c(S(=O)(=O)NCc2ccnc(N(C)C)n2)cc1OC` | 1.208 |
| 8 | `COc1ccc(NC(=O)CCN2CC=C(c3cnn(C)c3)CC2)cc1Cl` | 1.635 |
| 9 | `Cc1cnn(C2CCCN(C(=O)CCc3cscn3)C2)c1` (configuration not stated) | 13.16 |
| 10 | `Cc1nn(C)c(C)c1CC(=O)NCc1cccnc1OC1CCCC1` | 2.137 |
| 11 | `O=C(NC1CC1)N1CCN(c2cnccn2)CC1` | -0.7653 |
| 12 | `CCOCCC(=O)NCCNc1nccc(C(F)(F)F)n1` | -0.2141 |
| 13 | `Cc1nc(CSCCC(=O)NCc2cccnc2N(C)C)cs1` | 6.427 |
| 14 | `COCc1nc(CN2CCOC(CNc3cccnn3)C2)cs1` (configuration not stated) | 8.075 |
| 15 | `CCNC(=O)NC[C@@H]1C=C(C)[C@H](CC(=O)NCCN(C)C)C[C@H]1C(C)C` | -3.386 |
| 16 | `Cc1noc(C)c1CN(C)C(=O)C1CCCN1S(N)(=O)=O` (configuration not stated) | -3.19 |
| 17 | `Cc1noc(C)c1CN1CCO[C@H]2[C@H](Oc3ccccn3)CC[C@@H]21` | 0.3257 |
| 18 | `CC(C)c1nc(C2CCCN2C(=O)CN(C)Cc2ccccc2)no1` (configuration not stated) | 1.966 |
| 19 | `CN(CC(=O)N1CCCCC1c1nc(C(C)(C)C)cs1)C1CC1` (configuration not stated) | -7.775 |
| 20 | `CC(=O)N1N=C(c2cccs2)OC1C(=O)Nc1ccc(C(C)C)cc1` (configuration not stated) | 1.456 |
| 21 | `Cc1cc(C(=O)N[C@H]2CC[C@@]3(CCC(=O)N3)CC2)no1` | -0.5089 |
| 22 | `CC(C)CN1CCS(=O)(=O)[C@@H]2CCN(S(=O)(=O)c3ccccc3)CC[C@@H]21` | 0.2114 |
| 23 | `CC(C)C(C)NC(=O)Nc1ccc(CS(C)(=O)=O)cc1` (configuration not stated) | 4.993 |
| 24 | `O=C(C1CCOC1)N1C[C@H]2CN(Cc3nccs3)C[C@H]2C1` (some centres not stated) | 3.856 |
| 25 | `CS(=O)(=O)NC1CCCN(C(=O)NCc2cc[nH]n2)C1` (configuration not stated) | 5.897 |
| 26 | `Cc1cc(N2CCCN(C(=O)CSCC3CC3)CC2)ccn1` | 7.16 |
| 27 | `COCCN(C)CC(=O)N1C[C@@H](NC(C)=O)[C@H](c2ccc(OC)cc2)C1` | 13.73 |
| 28 | `CN(CCCOc1ccccc1)S(=O)(=O)c1cnn(C)c1` | 12.28 |
| 29 | `COc1c(C)cc(S(=O)(=O)NCC2CNCCOC2)cc1C` (configuration not stated) | -5.492 |
| 30 | `O=C(c1cc(COc2ccc3c(c2)OCO3)[nH]n1)N1CC=CC1CO` (configuration not stated) | -0.2151 |
| 31 | `CC(=O)N(Cc1ncc(C(C)C)o1)C1CCN(Cc2nccn2C)C1` (configuration not stated) | 2.361 |
| 32 | `CSc1cccc(CNC(=O)C2CC(=O)N(C3CC3)C2)c1` (configuration not stated) | 4.37 |
| 33 | `Cc1nc(C2CCCN(C(=O)c3ccc(Cl)cn3)C2)no1` (configuration not stated) | 14.95 and 62.73 |
| 34 | `CCc1nc(C2CCCN(C(=O)CCn3ccccc3=O)C2)no1` (configuration not stated) | 1.596 |
| 35 | `Cc1ccc(F)cc1-c1ccc(N)nc1` | 15.03 |
| 36 | `Cc1nn(C)c(N(C)C)c1CNCc1cccc(CN(C)C)c1` | -18.45 |
| 37 | `N#Cc1ccc(OCCCN2CCc3cncnc3C2)cc1` | 6.17 |
| 38 | `COCCCN1CCN(C(=O)C(c2cccc(F)c2)N(C)C)CC1` (configuration not stated) | -2.088 |
| 39 | `Cc1cnn(C2CCCN(C(=O)Cc3ccc4c(c3)CCO4)C2)c1` (configuration not stated) | 0.7833 |
| 40 | `Cc1cc(NC(=O)C(C)N2CCN(c3nc(C)ns3)CC2)on1` (configuration not stated) | 2.316 |
| 41 | `O=C(Cc1ccccc1)NCCNS(=O)(=O)C1CCCCC1` | 0.241 |
| 42 | `Cc1ccc(C(=O)NC2CCN(C(=O)NCc3ccccn3)CC2)o1` | 2.872 |
| 43 | `O=C1O[C@@H]2CN(C3CCOCC3)C[C@@H]2N1CCc1cccc(Cl)c1` | 1.799 |
| 44 | `O[C@@H]1Cc2ccccc2[C@@H]1Nc1ncccc1F` | 0.4808 |
| 45 | `O=C(O)c1cc2c(nc1-c1ccoc1)CCN(CC1CCOC1)CC2` (configuration not stated) | 3.807 |
| 46 | `CN(C)C(=O)N1CCN(Cc2ccc3occc3c2)[C@H]2CS(=O)(=O)C[C@H]21` | -6.349 |
| 47 | `COc1cc(N2CCc3ncnc(-c4cnn(C)c4)c3CC2)ncn1` | 3.484 |
| 48 | `O=C(NCCn1nc(C2CCNC2)c2cccnc21)C1CCC1` (configuration not stated) | 5.392 |
| 49 | `Cc1ccccc1NS(=O)(=O)c1cc2c(c(C(=O)O)c1)OCCO2` | 6.845 |
| 50 | `Cc1nc(NC2CCCC2)c2c(n1)c(C)nn2C` | -10.42 |
| 51 | `CCc1ccc(O)c(C(=O)NC2CCN(C(=O)OC)CC2)c1` | 2.85 |
| 52 | `Cc1cnn(CCNCC(=O)NCC2(c3ccccc3)CC2)c1` | 0.7833 |
| 53 | `CC(C)c1noc(CCCC(=O)N2CCC(Cc3cccnc3)CC2)n1` | 5.913 |
| 54 | `Cc1noc(CNc2cc3c(cc2Cl)NC(=O)CO3)n1` | 4.317 |
| 55 | `Cc1csc(C2CCCCN2C(=O)Cn2cncn2)n1` (configuration not stated) | 2.195 |
| 56 | `CC1(NC(=O)CC2CCc3ccccc32)CCOCC1` (configuration not stated) | -0.3636 |
| 57 | `CNC(=O)c1cc2c(nc1N(C)C)CCN(C)CC2` | -3.268 |
| 58 | `CC(C)CC(NC(=O)CN(C)C(=O)c1ccco1)c1cccs1` (configuration not stated) | -10 |
| 59 | `CN(CCCNC(=O)C1CCc2cn[nH]c2C1)c1ccccc1` (configuration not stated) | -5.447 |
| 60 | `CC1CCN(C(=O)CN(Cc2ccco2)C2CC2)CC1` | -5.897 |
| 61 | `CC(C)Oc1ccccc1OCCN1C(=O)CCNC1=O` | -1.699 |
| 62 | `O=C(NCC1(c2ccc(F)cc2)CC1)N1CCC2(CCOC2)C1` (configuration not stated) | 1.297 |
| 63 | `Cc1nc(C)c(C(=O)NCCNC(=O)Cc2ccccc2)s1` | -0.6745 |
| 64 | `O=C(c1ccc(-n2cccn2)nc1)N1CCC(c2ccn[nH]2)C1` (configuration not stated) | 17.25 |
| 65 | `Cn1nc2c(cc1=O)CN(CC(=O)NC1CCCCNC1=O)CC2` (configuration not stated) | -18.82 |
| 66 | `Cc1ccc(-c2nc(CCNC(=O)NC3CCC(O)CC3)co2)cc1` (configuration not stated) | 3.916 |
| 67 | `N[C@H]1CN(C(=O)c2ccc(Cl)cc2O)C[C@@H]1C1CC1` | -6.22 |
| 68 | `c1cnc(OCc2nnc3n2CCN(CC2CC2)C3)nc1` | 1.416 |
| 69 | `Cc1ccc(F)c(C(=O)N2CCC(Nc3ccc(C)nn3)CC2)c1` | 6.489 |
| 70 | `COc1cccc(OCC(=O)N2CCOc3ccncc32)c1` | -10.45 |
| 71 | `O=C(NC1CCN(C2CC2)CC1)c1cn(-c2ccc(Cl)cc2)nn1` | 3.185 |
| 72 | `CCC(CO)N(Cc1ccccn1)C(=O)c1cccc(C#N)c1` (configuration not stated) | -1.799 |
| 73 | `CN1CCCN(C(=O)c2cc3c(s2)CCN3C(=O)C2CC2)CC1` | 14.87 |
| 74 | `CC(C)CC(NC(=O)Nc1ccc(F)c(Cl)c1)C(=O)O` (configuration not stated) | -5.896 |
| 75 | `c1cc(C2CCN(C3CCCCC3)C2)n[nH]1` (configuration not stated) | 4.545 |
| 76 | `O=C1CCC2(CCN(Cc3cscn3)CC2)CN1CC1CCCO1` (configuration not stated) | 22.33 and 1.058 |
| 77 | `Cc1cc(C)n(CCN2CCOC(CNc3cccnn3)C2)n1` (configuration not stated) | 4.301 |
| 78 | `Cc1cc(C(=O)N[C@H]2CN(CCC(N)=O)C[C@@H]2C2CC2)sc1C` | 5.556 |
| 79 | `COC(=O)c1ccc(C(=O)NS(=O)(=O)c2cncc(Br)c2)cc1` | -6.183 |
| 80 | `COCCOCCNC(=O)c1ccc(N2CCC(C)=N2)cc1` | 2.404 |
| 81 | `COc1ccccc1NC(=O)c1cc2c([nH]c1=O)CCCC2=O` | 4.698 |
| 82 | `C[C@@H]1CN(Cc2ccncc2)C[C@]1(C)O` | -0.1215 |
| 83 | `Cn1ccc(CN2CCC(NC(=O)Cc3ccccc3)CC2)cc1=O` | 4.404 |
| 84 | `CN1CCCCC1c1nc(Cc2cccc(F)c2)no1` (configuration not stated) | 7.625 |
| 85 | `Nc1ccnc(N2CCC(c3nccn3CC3CC3)CC2)n1` | 4.084 |
| 86 | `C[C@]1(O)CN(CC(=O)N2CCCC2)CC[C@@H]1Oc1cccc(F)c1` | -1.699 |
| 87 | `O=C1NCCCCC1NS(=O)(=O)N1CCCCC1` (configuration not stated) | 13.31 |
| 88 | `Cc1ccc(C)c(CNC(=O)NC(C)(C(=O)O)c2ccco2)c1` (configuration not stated) | 5.175 |
| 89 | `N#Cc1ccccc1CN1CCC(c2nccn2CC(N)=O)CC1` | -3.44 |
| 90 | `CC(C)(C)c1cn(CC2CCCN(c3cnc4ccccc4n3)C2)nn1` (configuration not stated) | -1.811 |
| 91 | `COc1ccc(S(=O)(=O)NCCC(O)c2cccs2)c(C)c1` (configuration not stated) | 8.668 |
| 92 | `CC(C)S(=O)(=O)N1CCC(c2cc3n(n2)[C@@H](C(F)(F)F)C[C@@H](C)N3)CC1` | 0.1239 |
| 93 | `CC1CCC(N2CCC(NS(=O)(=O)CCCF)CC2)CC1` (configuration not stated) | -11.16 |
| 94 | `CN(C)Cc1nc(C2(NC(=O)Nc3cccc(F)c3)CCCC2)no1` | -7.807 |
| 95 | `CN(Cc1cc2cc(F)ccc2[nH]1)C(=O)C1CC(=O)N(C2CC2)C1` (configuration not stated) | 0.8373 |

The last 9 entries again:

Compound,effect
O=C1NCCCCC1NS(=O)(=O)N1CCCCC1 (configuration not stated),13.31
Cc1ccc(C)c(CNC(=O)NC(C)(C(=O)O)c2ccco2)c1 (configuration not stated),5.175
N#Cc1ccccc1CN1CCC(c2nccn2CC(N)=O)CC1,-3.44
CC(C)(C)c1cn(CC2CCCN(c3cnc4ccccc4n3)C2)nn1 (configuration not stated),-1.811
COc1ccc(S(=O)(=O)NCCC(O)c2cccs2)c(C)c1 (configuration not stated),8.668
CC(C)S(=O)(=O)N1CCC(c2cc3n(n2)[C@@H](C(F)(F)F)C[C@@H](C)N3)CC1,0.1239
CC1CCC(N2CCC(NS(=O)(=O)CCCF)CC2)CC1 (configuration not stated),-11.16
CN(C)Cc1nc(C2(NC(=O)Nc3cccc(F)c3)CCCC2)no1,-7.807
CN(Cc1cc2cc(F)ccc2[nH]1)C(=O)C1CC(=O)N(C2CC2)C1 (configuration not stated),0.8373